Source: article doi:10.1101/2020.02.02.931204
No constants are given. Whether binding was seen depends on the method and setting. In cells and extracts the contact can be indirect. A yes stands for co-enrichment or nearness to the bait. Other partners may have been found.

Sequences of proteins named here, by UniProt entry; tags and fusion partners are left off.
UniProt P37285: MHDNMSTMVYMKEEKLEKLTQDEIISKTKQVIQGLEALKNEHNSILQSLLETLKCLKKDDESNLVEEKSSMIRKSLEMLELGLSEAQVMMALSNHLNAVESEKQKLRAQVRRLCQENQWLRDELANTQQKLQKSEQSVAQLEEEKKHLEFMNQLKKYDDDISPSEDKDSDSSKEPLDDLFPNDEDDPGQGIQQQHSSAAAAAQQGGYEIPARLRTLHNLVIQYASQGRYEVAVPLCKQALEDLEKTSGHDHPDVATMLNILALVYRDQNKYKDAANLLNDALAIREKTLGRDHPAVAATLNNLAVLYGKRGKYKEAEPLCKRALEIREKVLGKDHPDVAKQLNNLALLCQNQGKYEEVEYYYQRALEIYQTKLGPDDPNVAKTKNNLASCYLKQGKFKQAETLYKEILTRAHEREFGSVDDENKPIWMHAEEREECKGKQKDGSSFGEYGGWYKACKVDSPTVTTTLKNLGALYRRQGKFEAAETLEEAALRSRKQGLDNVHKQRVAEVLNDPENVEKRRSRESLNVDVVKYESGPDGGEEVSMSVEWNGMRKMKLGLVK
UniProt Q6QLM7: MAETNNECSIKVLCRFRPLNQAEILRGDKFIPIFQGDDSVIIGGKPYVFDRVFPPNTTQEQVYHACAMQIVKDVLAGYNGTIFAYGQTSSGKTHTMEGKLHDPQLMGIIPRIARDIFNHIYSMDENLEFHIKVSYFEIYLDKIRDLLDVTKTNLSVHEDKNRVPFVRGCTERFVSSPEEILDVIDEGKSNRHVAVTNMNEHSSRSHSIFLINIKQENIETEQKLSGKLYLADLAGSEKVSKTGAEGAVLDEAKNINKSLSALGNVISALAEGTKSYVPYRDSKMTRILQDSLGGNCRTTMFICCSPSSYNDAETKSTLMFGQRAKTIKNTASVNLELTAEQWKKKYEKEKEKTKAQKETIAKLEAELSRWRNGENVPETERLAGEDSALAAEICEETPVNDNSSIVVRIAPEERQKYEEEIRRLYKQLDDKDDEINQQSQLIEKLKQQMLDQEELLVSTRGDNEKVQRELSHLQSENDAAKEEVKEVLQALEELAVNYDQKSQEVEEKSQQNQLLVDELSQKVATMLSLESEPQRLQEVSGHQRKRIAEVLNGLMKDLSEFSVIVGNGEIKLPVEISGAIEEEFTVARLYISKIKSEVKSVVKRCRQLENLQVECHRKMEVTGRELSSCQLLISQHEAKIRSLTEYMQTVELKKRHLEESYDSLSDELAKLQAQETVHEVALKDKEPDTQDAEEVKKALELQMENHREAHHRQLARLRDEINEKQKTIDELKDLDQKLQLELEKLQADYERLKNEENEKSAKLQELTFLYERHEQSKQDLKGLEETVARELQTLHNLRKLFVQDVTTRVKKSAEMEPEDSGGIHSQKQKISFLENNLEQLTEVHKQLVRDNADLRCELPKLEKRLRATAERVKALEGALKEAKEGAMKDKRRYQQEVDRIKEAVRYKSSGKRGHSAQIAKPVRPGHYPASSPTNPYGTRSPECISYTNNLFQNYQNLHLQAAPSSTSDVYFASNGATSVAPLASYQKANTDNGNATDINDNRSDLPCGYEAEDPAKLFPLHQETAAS

What was measured:
[1] = target: KLC1, endogenous in DRG sensory neurons (rat (endogenous in DRG sensory neurons)) (UniProt P37285); assay: affinity purification with mass spectrometry
[2] = target: Splicing factor proline/glutamine-rich (SFPQ), endogenous in DRG sensory neurons (rat (endogenous in DRG sensory neurons)); assay: affinity purification with mass spectrometry

Molecule: KIF5A, endogenous in DRG sensory neurons (from UniProt Q6QLM7 1-1027)
- binding [1]: binds

B1: PSPC1, endogenous in DRG sensory neurons (protein, UniProt Q4KLH4 1-522)
chain: MMLRGNLKQVRIEKNPARLRALESAAGESEPVAAAAMALTLAGEQPPPPAPSEEHPDEEMGFTIDIKSFLKPGEKTYTQRCRLFVGNLPTDITEEDFKRLFERYGEPSEVFINRDRGFGFIRLESRTLAEIAKAELDGTILKSRPLRIRFATHGAALTVKNLSPVVSNELLEQAFSQFGPVEKAVVVVDDRGRATGKGFVEFAAKPPARKALERCGDGAFLLTTTPRPVIVEPMEQFDDEDGLPEKLMQKTQQYHKEREQPPRFAQPGTFEFEYASRWKALDEMEKQQREQVDRNIREAKEKLEAEMEAARHEHQLMLMRQDLMRRQEELRRLEELRNQELQKRKQIQLRHEEEHRRREEEMIRHREQEELRRQQEGFKPNYMENREQEMRMGDMGPRGAINMGDAFSPAPAGTQGPPPMMGMNMNNRGTIPGPPMGPGPAMGPEGAANMGTPMIPDNGAVHNDRFPQGPPSQMGSPMGNRTGSETPQAPMSAVGPVSGGPGGFGRGSQGGNFEGPNKRRRY
- binding [2]: binds
